Each number is a percent effect as filed.
How 0% and 100% were set is not recorded. Most values in the screen are low, and negative values occur.
The compounds are a random part of those screened.
Two or more numbers in one place are separate tests of the same structure; such repeats can differ widely.
A dash means the value is not listed here; it may have been measured.

Toxoplasma: 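Assay of Toxoplasma gondii numbers, read through their beta-galactosidase reporter with a colour substrate. Compounds at 10 µM. The record gives no direction; the compounds picked for IC50 retests had high values, so higher reads as fewer parasites. About 67,000 compounds were tested under these conditions; 0.38% (about 260) showed 50% or more at least once.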
Leishmania in macrophages: 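Cell assay of Leishmania donovani living inside macrophages; the read-out is not stated. Concentration: 30 µM. Direction is inferred from retests: higher values go with stronger inhibition. Of about 69,000 compounds tested this way, about 1,000 (1.5%) reached 50% or more in at least one test.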

structure,Toxoplasma,Leishmania in macrophages
O=C(O)C(F)(F)F.O=C(O)C(F)(F)F.[H][C@@]12CN(CC)C[C@]1([H])[C@@H](OC)CCN2S(=O)(=O)c1cccnc1,-17.56%,12.64%
O=C(O)C(F)(F)F.[H][C@@]12CCN(Cc3ccc(OC)cc3)C[C@]1(C(=O)NCCOC)CCO2,-11%,18.13%
O=C(O)C(F)(F)F.O=C(O)C(F)(F)F.[H][C@@]12CCCO[C@]1([H])[C@@H](OCCN(C)C)CN2Cc1ccc(C)o1,1.011%,10.59%
Cc1ccc(CN2CCCC3(CCCC(=O)N3)C2)s1.O=C(O)C(F)(F)F (stereo unspecified),-0.622%,-14.52%
CCCN1C(=O)c2ccccc2C1OC (stereo unspecified),-1.765%,-9.767%
COc1ccc2c(c1)CC(NCCCn1cc(C)cn1)CC2 (stereo unspecified),-3.936%,-15.59%
O=C(O)C(F)(F)F.[H][C@@]12COC[C@]1(COCc1cccnc1)CN(C(=O)c1ccccc1C)C2,-3.273%,-3.468% & -70.93%
COc1ccc(CN2CC[C@@H](N)[C@@H](OC)C2)cc1Cn1cncn1,4.453%,25.14%
Fc1ccc(-c2nc(CNC3CCc4ncnn4C3)co2)cc1 (stereo unspecified),4.151%,-1.647%
Cc1cnn(CCNC(C)C(=O)NCCc2cccs2)c1 (stereo unspecified),-2.373%,-8.002%
O=C1CCCN1CCc1noc(-c2ccc3[nH]cnc3c2)n1,13.65%,3.569%
Cc1ccc(C(=O)N2CC(C(N)=O)O[C@H](C)C2)c(F)c1 (stereo partly specified),11.89%,10.04%
O=C1CC2(CCN(Cc3ncc[nH]3)CC2)CN1Cc1ccc(Cl)cc1,-16.2%,5.906%
CCc1cc(CN2CCC(CCC(=O)Nc3ccccc3Cl)CC2)on1,5.967%,1.152%
COCCNc1ccc(CC2CCCNC2)cn1.Cl (stereo unspecified),-5.845%,32.03%
Cc1nsc(N2CCN(C(=O)Nc3ccc4[nH]ccc4c3)CC2)n1,-3.366%,-6.088%
Cc1nc2cc(-c3nccn3C)nn2c(N2CCCC2)c1C,-0.8015%,32.57%
COc1cc(CCC(=O)NC2CC2)ccc1OCC(F)(F)F,0.565%,-6.065%
Cc1ccsc1CN(c1nc(CCN)nc2ccccc12)C1CC1,-5.493%,40.33%
Cc1ccc2c(c1)OC(C)(C)CC2NC(=O)C1CCN(S(C)(=O)=O)CC1 (stereo unspecified),-6.42%,21.31%
CC(OCC(F)(F)F)C(=O)N1CCN(S(C)(=O)=O)CC1 (stereo unspecified),-1.752%,19.62%
CC(C)CC(=O)N1CCCn2cnc(CN3CCCC3=O)c2C1,1.01%,40.17%
[H][C@@]12CN(Cc3cnn(C)c3)C[C@]1([H])OCCN2CC1CCCC1,-2.593%,-12.68%
O=C(O)C(F)(F)F.O=C(O)C(F)(F)F.O=C(O)c1c(-c2cncnc2)ncc2c1CCN(Cc1ccco1)C2,-1.084%,19.82%
COc1ccc2c(c1)OCC(Cc1cncc(N)c1)C2 (stereo unspecified),-0.1133%,5.342%
C[S+]([O-])c1nncn1CC(=O)c1ccc(Br)cc1 (stereo unspecified),-1.333%,24.36%
CSCC(=O)N1CCC2(CC1)c1ccccc1CC2O (stereo unspecified),-3.689%,1.014%
Cn1ccnc1CN1CCC2(CC1)CCN(Cc1ccoc1)C2.O=C(O)C(F)(F)F.O=C(O)C(F)(F)F,4.901%,10.21%
CC(C)NC(=O)CN1CCC(c2cccc(F)c2)C1 (stereo unspecified),-27.17%,-1.431%
COCC(=O)Nc1ccc(-c2noc([C@@H]3CCCN3)n2)cn1,-6.718%,-3.723%
O=C(O)C(F)(F)F.[H][C@@]12CCN(c3cccnc3)C[C@]1([H])CN(C(=O)CC1CCCC1)C2,1.373%,18.83%
Nc1ncc(C(=O)N2CCC(O)(CO)CC2)c(-c2ccccc2)n1,18.37%,28.73%
CCC1C(=O)NCCN1c1cc(C)ncn1 (stereo unspecified),2.988%,-19.83%
COc1ccccc1CN1CC[C@]2(C[C@@H](OC)CO2)C1.O=C(O)C(F)(F)F,-8.725%,12.58%
CCc1csc(C2CCCN(C(=O)c3ccncc3)C2)n1 (stereo unspecified),0.6734%,-3.819%
CC(C)CCOCCNC(=O)Nc1cc(C(F)(F)F)c[nH]c1=O,6.57%,19.42%
CN(CCn1cccn1)c1cc(C(F)(F)F)nc(-c2cccnc2)n1,-50.96%,1.277%
CC(C)[C@H](N)CC(=O)Nc1nc(-c2cnc(N3CCOCC3)nc2)cs1.Cl,-0.2419%,25.92% & 9.969%
O=C(O)c1cccnc1CN1CCCCC1CCc1cccs1 (stereo unspecified),8.717%,7.202%
CC(C)c1csc(C2CCCN(C(=O)c3ncccn3)C2)n1 (stereo unspecified),0.7974%,-18.69%
Cc1ccsc1CNC(=O)N1CCC(Cc2cnn(C)c2)C1 (stereo unspecified),-13.55%,10.09%
N#Cc1cccc(N2CCCC3(CN(C(=O)c4ccc[nH]4)CCO3)C2)c1 (stereo unspecified),-1.988%,1.97%
CNC(=O)C1Cn2ccnc2C2(CCN(C(=O)c3ccoc3C)CC2)O1.O=C(O)C(F)(F)F (stereo unspecified),7.324%,20.12%
CC(=O)Nc1cccc2c1ccn2CC(=O)Nc1n[nH]c(CC(C)C)n1,11.52%,10.64%
Cc1ccc2c(c1)OC(C)CN2C(=O)CCc1cscn1 (stereo unspecified),9.849%,8.966%
CC(C)C(NC(=O)c1ccc(=O)[nH]c1)c1nnc2n1CCNCC2 (stereo unspecified),14.19%,5.728%
Cc1ncc(CC(=O)N2CCCC(COc3ccccc3F)C2)c(=O)[nH]1 (stereo unspecified),5.408%,26.37%
COc1ccc(OC)c(C2SCC(=O)Nc3n[nH]cc32)c1 (stereo unspecified),-5.025%,6.81%
CC(=O)NC(C(=O)N(C)Cc1nnc2n1CCC2)C(C)C (stereo unspecified),-3.991%,10.08%
Cc1nn(C)c(Cl)c1C1CCCN1C(=O)c1cc(Cl)c[nH]1 (stereo unspecified),0.8616%,12.97%
CC[C@@]1(O)CCN(C(=O)c2ccc(CN3CCCCCC3)cc2)C[C@H]1O,9.398%,37.14%
Cc1ccc(NC(=O)C2CSCN2C(=O)c2cnccn2)cc1C (stereo unspecified),-13.69%,14.99%
CCn1c(C)cc(C(=O)NCc2cccc(S(=O)(=O)NC)c2)c1C,-5.012%,-2.214%
[H][C@@]12COC[C@H](C(=O)Nc3cnccn3)[C@]1([H])CN(S(C)(=O)=O)C2,4.291%,6.098%
CCc1nc(CN2CCOC(Cn3cncn3)C2)no1 (stereo unspecified),15.22%,6.508%
COC(=O)c1ccc(NC2CCN(CC(F)(F)F)C2=O)cc1C (stereo unspecified),-15.44%,-29.19%
Cc1nnc(CN2CCOC(c3ccc(Cl)c(Cl)c3)C2)o1 (stereo unspecified),1.925%,8.694%
CN(Cc1ccsc1)C(=O)c1cc2c([nH]c1=O)CCCC2=O,1.939%,12.94%
CCCOc1ccc(C(=O)Oc2cc(=O)n3cccc(C)c3n2)cc1,-3.015%,21.89% & 8.08%
COC(=O)c1cc(OCC2CCC2)cc(C(=O)NCC(C)(C)O)c1,-22.54%,-0.5931%
COCC(=O)NC1CC2(CCN(CCO)CC2)c2ccccc21.O=C(O)C(F)(F)F (stereo unspecified),-18.25%,8.463%
CCN1CCN(S(=O)(=O)c2c[nH]c(C(C)C)n2)c2ccccc21,-3.974%,22.04%
N#Cc1nccnc1N1CCC(OCCCc2ccccc2)C1 (stereo unspecified),-11.35%,-12.25%
CC(Cn1ccnc1)NC(=O)NCCc1cccnc1 (stereo unspecified),-8.259%,13.53%
Cc1cccc(CN2CCOCC2c2[nH]ncc2C)n1 (stereo unspecified),4.809%,-26.14%
NC(=O)C1CCCN1Cc1ccccc1NC(=O)CC(F)(F)F (stereo unspecified),-5.407%,12.64%
CN(C(=O)C1CCCCC1)[C@@H]1CCC[C@@H](N2CCOCC2)[C@@H]1O,13.26%,-0.6274%
O=C(Nc1nncs1)N(Cc1cccc(F)c1)C1CC1,-4.279%,6.621%
CN(CCC(F)(F)F)C(=O)[C@H]1CSCN1C(=O)OC(C)(C)C,4.269%,0.7875%
CCn1ncc(CN(C)C(=O)c2ccn(C)n2)c1C,21.33%,9.989%
COCCn1ccc(NC(=O)Nc2ccc(C(N)=O)c(F)c2)n1,1.156%,-1.262%
CC(C)c1noc(CCCC(=O)N2CCN(Cc3ccncc3)CC2)n1,-,-1.932%
CNC(=O)Cc1noc(-c2cc3c(s2)CCCCCC3)n1,1.016%,14.39%

For reference, 9 entries once more:

- N#Cc1nccnc1N1CCC(OCCCc2ccccc2)C1 (stereo unspecified) | Toxoplasma: -11.35%; Leishmania in macrophages: -12.25%
- COc1ccccc1CN1CC[C@]2(C[C@@H](OC)CO2)C1.O=C(O)C(F)(F)F | Toxoplasma: -8.725%; Leishmania in macrophages: 12.58%
- Cc1nn(C)c(Cl)c1C1CCCN1C(=O)c1cc(Cl)c[nH]1 (stereo unspecified) | Toxoplasma: 0.8616%; Leishmania in macrophages: 12.97%
- CN(CCC(F)(F)F)C(=O)[C@H]1CSCN1C(=O)OC(C)(C)C | Toxoplasma: 4.269%; Leishmania in macrophages: 0.7875%
- Cc1nsc(N2CCN(C(=O)Nc3ccc4[nH]ccc4c3)CC2)n1 | Toxoplasma: -3.366%; Leishmania in macrophages: -6.088%
- CCc1csc(C2CCCN(C(=O)c3ccncc3)C2)n1 (stereo unspecified) | Toxoplasma: 0.6734%; Leishmania in macrophages: -3.819%
- CCC1C(=O)NCCN1c1cc(C)ncn1 (stereo unspecified) | Toxoplasma: 2.988%; Leishmania in macrophages: -19.83%
- Cc1ccc2c(c1)OC(C)CN2C(=O)CCc1cscn1 (stereo unspecified) | Toxoplasma: 9.849%; Leishmania in macrophages: 8.966%
- CC(C)c1csc(C2CCCN(C(=O)c3ncccn3)C2)n1 (stereo unspecified) | Toxoplasma: 0.7974%; Leishmania in macrophages: -18.69%

The values are deposited in ChEMBL (CHEMBL3988442, “University of Dundee, Small-Polar-MMV Screening Library” (2021)).